{"sequences": {"note": "Amino acid sequences for entries named in this document (tags omitted). A change or cut given only in a name is not applied to a line headed by its entry.", "UniProt A9CGG6": "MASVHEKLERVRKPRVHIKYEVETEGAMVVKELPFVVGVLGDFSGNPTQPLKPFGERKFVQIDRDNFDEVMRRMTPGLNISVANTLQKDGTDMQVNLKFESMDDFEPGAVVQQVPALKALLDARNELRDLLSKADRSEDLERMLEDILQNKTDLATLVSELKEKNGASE", "UniProt A9CGG5": "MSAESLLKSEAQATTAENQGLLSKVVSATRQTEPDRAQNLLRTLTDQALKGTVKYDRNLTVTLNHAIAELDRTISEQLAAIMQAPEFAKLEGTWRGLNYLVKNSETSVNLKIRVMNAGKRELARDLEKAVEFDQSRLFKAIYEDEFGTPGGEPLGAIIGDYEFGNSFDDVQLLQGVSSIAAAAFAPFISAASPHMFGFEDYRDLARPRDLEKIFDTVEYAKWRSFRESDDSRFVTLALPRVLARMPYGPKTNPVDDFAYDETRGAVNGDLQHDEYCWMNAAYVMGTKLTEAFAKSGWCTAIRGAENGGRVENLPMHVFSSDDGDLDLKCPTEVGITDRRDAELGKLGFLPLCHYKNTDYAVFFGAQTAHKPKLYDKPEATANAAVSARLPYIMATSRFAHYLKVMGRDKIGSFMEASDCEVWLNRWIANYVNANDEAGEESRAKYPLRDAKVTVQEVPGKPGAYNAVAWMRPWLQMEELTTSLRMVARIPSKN"}, "source": "paper PMC3702570", "biological_target": "TssB-His (pET22b-TssB-His) (Agrobacterium tumefaciens C58) (UniProt A9CGG6)", "assay": "pull-down; co-purification: pairs co-expressed in E. coli BL21(DE3), IPTG 0.5 mM at 25°C; soluble extract loaded on Ni-NTA column, His-tagged protein as bait; wash 50 mM NaH2PO4, 0.3 M NaCl, 25 mM imidazole, pH 8.0; elution 400 mM imidazole; western blot", "note": "These are yes or no findings as the source states them, for the method shown. In cells and extracts the contact can be indirect. A result given as binding can be weak or reduced; the word gives no strength.", "data": [{"substance": "TssC41 (Atu4341), expressed without any fusion from pTrc-TssC41 (from UniProt A9CGG5)", "values": [{"measurement": "binding", "value": "binds"}]}]}
